The other results are listed elsewhere or left out.

The chains behind the UniProt entries cited, without tags or fusion partners. Where a name states a change or a piece, a line headed by the entry shows the natural chain unless it says otherwise.
UniProt Q5T1J5: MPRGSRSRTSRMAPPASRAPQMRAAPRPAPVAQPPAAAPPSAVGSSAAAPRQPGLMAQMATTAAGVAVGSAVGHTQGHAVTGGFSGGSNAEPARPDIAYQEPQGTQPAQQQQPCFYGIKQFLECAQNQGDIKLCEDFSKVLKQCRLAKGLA
UniProt Q8N4Q1: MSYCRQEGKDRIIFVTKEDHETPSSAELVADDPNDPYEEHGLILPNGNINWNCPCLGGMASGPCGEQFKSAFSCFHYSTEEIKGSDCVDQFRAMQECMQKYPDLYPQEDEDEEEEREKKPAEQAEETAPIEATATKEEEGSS
UniProt P24386: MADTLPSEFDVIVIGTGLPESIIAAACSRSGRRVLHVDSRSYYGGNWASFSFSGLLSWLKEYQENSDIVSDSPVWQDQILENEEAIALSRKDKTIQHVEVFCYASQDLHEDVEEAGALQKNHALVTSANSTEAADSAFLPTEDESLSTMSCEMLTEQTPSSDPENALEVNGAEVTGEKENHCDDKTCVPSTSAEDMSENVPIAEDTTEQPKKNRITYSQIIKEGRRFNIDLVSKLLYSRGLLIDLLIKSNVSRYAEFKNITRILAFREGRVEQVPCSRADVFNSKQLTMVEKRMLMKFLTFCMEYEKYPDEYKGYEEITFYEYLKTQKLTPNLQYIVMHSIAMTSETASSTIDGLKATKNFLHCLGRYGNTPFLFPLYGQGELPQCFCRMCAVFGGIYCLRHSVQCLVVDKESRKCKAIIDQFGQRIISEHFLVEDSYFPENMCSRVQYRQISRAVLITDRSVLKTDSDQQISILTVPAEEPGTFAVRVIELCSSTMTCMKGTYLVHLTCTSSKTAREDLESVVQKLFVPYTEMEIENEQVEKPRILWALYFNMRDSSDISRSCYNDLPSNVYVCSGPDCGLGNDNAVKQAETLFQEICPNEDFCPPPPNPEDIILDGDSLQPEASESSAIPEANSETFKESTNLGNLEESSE
UniProt Q9BQ75: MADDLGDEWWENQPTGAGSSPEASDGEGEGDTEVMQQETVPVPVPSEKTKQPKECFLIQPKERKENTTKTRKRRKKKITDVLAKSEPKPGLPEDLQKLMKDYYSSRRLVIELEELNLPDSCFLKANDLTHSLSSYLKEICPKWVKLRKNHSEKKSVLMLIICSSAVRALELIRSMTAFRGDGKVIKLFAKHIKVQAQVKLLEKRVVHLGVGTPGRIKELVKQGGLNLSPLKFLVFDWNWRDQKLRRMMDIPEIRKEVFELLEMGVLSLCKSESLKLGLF
UniProt Q9BY43: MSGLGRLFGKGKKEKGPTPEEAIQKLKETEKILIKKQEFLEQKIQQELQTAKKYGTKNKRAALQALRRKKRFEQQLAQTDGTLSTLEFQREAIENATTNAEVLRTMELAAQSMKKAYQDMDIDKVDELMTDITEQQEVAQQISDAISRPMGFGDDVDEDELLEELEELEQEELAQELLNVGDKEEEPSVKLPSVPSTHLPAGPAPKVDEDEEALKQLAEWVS
UniProt Q9Y3D0: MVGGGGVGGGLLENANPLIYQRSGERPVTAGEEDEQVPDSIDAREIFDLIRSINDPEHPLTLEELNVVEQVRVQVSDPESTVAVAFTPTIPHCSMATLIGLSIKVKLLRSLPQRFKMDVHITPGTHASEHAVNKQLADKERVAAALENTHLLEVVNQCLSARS
UniProt Q8N5K1: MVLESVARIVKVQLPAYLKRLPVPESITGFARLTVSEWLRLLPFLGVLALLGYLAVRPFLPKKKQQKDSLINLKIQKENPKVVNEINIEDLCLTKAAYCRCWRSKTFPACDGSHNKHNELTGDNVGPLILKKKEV
UniProt Q9ULV3: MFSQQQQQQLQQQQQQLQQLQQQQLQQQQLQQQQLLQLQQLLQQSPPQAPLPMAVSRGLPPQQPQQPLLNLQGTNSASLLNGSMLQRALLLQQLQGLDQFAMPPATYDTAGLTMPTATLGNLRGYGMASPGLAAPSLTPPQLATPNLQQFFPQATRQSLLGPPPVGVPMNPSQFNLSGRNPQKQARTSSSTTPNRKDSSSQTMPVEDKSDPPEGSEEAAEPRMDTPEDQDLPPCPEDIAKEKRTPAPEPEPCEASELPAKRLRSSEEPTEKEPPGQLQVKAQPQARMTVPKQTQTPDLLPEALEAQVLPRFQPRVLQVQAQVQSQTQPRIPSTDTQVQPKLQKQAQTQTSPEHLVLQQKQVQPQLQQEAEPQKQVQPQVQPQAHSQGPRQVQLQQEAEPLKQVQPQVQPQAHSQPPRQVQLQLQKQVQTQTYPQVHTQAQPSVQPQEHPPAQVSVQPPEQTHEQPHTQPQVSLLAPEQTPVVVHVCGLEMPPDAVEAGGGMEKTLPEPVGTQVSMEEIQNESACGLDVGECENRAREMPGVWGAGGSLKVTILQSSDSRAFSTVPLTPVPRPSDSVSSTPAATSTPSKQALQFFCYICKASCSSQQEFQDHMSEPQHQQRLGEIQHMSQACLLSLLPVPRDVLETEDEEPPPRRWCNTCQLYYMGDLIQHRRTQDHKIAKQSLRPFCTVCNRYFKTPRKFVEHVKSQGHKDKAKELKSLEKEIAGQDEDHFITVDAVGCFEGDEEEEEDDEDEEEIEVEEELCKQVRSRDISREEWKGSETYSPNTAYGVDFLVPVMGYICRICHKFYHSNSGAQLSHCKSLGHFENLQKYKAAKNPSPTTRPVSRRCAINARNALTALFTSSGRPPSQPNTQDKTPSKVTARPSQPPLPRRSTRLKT
UniProt Q8TDI0: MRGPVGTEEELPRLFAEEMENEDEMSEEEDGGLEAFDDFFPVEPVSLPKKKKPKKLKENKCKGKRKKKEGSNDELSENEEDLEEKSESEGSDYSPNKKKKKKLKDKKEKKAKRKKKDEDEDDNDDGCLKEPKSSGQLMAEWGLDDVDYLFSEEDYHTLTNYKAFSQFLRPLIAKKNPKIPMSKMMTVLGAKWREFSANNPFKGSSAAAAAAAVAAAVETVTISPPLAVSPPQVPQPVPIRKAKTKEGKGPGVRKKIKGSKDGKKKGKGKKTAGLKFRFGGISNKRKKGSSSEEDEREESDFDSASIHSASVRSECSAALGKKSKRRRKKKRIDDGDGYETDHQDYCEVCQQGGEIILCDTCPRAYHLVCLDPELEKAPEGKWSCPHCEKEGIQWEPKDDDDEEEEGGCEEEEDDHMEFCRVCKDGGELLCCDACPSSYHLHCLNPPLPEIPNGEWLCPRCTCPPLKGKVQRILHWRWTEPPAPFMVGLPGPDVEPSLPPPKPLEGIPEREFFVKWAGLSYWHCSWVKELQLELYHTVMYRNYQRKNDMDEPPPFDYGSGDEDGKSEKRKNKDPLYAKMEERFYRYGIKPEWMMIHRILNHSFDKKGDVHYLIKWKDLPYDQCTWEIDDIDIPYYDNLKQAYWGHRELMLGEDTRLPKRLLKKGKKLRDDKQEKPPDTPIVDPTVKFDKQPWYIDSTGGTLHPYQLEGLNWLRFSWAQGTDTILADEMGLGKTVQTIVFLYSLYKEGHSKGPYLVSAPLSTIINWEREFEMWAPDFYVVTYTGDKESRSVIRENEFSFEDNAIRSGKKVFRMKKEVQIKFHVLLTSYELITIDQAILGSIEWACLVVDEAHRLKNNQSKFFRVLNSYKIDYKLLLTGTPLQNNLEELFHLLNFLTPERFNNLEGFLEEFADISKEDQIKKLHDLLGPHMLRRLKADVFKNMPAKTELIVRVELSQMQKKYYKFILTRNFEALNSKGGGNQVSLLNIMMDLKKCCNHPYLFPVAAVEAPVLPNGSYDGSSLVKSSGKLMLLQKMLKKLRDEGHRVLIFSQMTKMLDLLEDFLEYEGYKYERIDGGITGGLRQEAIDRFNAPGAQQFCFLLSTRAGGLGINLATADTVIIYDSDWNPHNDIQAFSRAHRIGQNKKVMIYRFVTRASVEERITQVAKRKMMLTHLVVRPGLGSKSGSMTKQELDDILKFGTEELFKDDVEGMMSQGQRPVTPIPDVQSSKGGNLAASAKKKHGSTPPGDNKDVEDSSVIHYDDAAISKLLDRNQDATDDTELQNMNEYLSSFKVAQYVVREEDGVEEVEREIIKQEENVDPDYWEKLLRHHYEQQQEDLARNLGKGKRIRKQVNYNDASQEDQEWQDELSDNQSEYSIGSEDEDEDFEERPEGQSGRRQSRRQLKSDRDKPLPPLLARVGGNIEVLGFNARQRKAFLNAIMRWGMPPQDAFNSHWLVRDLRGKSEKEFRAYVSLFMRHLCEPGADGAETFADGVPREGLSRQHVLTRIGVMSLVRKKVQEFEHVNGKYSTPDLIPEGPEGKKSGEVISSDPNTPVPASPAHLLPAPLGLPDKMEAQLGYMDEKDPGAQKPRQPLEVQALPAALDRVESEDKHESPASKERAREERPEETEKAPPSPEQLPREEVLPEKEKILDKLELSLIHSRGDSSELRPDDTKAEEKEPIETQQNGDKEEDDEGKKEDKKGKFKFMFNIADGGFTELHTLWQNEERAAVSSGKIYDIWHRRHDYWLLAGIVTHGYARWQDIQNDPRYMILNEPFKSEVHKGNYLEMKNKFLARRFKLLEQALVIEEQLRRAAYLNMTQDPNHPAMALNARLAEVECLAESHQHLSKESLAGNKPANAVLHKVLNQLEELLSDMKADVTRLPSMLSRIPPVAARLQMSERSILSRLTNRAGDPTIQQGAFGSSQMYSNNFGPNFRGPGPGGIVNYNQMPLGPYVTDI
UniProt Q12873: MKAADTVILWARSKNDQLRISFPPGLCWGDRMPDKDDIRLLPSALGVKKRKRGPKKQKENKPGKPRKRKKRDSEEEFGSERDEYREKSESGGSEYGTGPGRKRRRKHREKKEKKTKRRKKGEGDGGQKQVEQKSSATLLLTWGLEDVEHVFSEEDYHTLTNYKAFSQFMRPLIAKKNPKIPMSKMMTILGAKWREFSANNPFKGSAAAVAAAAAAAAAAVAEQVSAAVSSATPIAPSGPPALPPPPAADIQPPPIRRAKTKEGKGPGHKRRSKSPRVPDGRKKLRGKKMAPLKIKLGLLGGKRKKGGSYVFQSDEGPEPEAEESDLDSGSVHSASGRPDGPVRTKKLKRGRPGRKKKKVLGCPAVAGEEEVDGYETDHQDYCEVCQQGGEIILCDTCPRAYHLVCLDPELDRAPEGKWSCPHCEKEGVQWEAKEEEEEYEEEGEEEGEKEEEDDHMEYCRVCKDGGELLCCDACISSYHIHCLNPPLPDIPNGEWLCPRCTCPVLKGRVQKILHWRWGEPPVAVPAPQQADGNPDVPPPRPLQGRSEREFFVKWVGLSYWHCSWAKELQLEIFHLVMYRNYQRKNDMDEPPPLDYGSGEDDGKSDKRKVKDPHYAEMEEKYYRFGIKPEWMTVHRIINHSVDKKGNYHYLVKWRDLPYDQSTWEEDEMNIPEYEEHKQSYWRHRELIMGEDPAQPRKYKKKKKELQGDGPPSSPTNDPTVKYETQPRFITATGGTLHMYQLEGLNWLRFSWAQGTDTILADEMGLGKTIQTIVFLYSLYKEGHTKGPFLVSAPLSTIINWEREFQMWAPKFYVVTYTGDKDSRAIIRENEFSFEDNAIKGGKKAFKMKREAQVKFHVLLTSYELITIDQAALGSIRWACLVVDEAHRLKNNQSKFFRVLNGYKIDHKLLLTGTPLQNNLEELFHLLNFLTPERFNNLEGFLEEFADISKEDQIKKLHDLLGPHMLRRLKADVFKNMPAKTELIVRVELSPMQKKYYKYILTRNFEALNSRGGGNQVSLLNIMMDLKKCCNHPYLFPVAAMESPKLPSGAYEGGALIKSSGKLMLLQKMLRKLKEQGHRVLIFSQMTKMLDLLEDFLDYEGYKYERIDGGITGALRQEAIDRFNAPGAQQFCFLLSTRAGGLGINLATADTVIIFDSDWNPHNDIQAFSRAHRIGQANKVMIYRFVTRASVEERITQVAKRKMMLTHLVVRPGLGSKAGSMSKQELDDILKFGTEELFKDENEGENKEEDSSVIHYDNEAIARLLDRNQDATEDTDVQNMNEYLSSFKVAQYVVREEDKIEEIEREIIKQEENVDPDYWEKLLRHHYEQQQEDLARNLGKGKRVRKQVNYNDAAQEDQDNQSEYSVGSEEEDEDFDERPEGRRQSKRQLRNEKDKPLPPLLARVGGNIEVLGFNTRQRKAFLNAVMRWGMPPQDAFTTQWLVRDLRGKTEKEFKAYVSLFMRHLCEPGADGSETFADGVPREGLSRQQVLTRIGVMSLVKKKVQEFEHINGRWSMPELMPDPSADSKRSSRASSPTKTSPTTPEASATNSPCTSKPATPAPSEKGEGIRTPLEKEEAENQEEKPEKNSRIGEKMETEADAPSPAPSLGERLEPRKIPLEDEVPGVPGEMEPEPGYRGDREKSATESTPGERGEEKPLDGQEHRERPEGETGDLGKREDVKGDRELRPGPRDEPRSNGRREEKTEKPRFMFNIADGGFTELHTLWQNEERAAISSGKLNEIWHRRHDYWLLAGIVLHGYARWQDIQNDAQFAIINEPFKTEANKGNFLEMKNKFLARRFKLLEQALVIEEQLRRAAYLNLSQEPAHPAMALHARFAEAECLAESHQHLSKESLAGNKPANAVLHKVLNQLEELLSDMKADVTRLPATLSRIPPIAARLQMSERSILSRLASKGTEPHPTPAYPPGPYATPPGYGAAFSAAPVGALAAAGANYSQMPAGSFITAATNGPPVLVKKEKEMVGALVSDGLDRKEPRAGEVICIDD

Compound in this assay: CC(C)(O)CC(=O)NCCn1ccc2ncnc(Nc3ccc(Oc4cccc(C(F)(F)F)c4)c(Cl)c3)c21
The experiment in a line: log2 fold change, soluble protein after heating vs DMSO (PISA); higher = thermal stabilisation; K562 lysate, 10 uM; active = over 0.2 and 3.5 SD of the protein, either way, in both replicates (recomputed). The method in brief:
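Soluble protein was defined as the supernatant remaining after 21,000xg for 90 min, following pooling of heated aliquots and adjustment to 0.5% NP-40 at 4°C. Before that, crude K562 extract at 1 mg/mL protein in PBS pH 7.4 with 1 mM MgCl2 was treated with 10 μM compound for 30 min and heated for 3 min across 48°C-58°C. Quantification used TMTpro 16plex LC-MS/MS with channel sums equalised, and values are log-two fold changes in thermal stability relative to solvent controls from duplicates.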
Turning to CIT isoform 4 (UniProt O14578), the log2 fold change was inactive: -0.01.

On to CHEK1 (UniProt O14757), for which the log2 fold change is inactive: -0.004.

Consider CHCHD2P9 (UniProt Q5T1J5), for which the log2 fold change is inactive: 0.026.

CIRBP (UniProt Q14011): the log2 fold change is inactive: -0.011.

Consider CMIP (UniProt Q8IY22), for which the log2 fold change was inactive: 0.004.

For the target CHKA (UniProt P35790), the log2 fold change was inactive: -0.012.

For the target CHCHD4 isoform 2 (UniProt Q8N4Q1), the log2 fold change is inactive: -0.091.

For the target CHM (UniProt P24386), the log2 fold change is inactive: -0.031.

Take CKM (UniProt P06732): the log2 fold change is inactive: -0.076.

Turning to CHID1 (UniProt Q9BWS9), the log2 fold change was inactive: 0.011.

As to CMSS1 (UniProt Q9BQ75), the log2 fold change is inactive: -0.011.

Regarding CHMP4A isoform 2 (UniProt Q9BY43), the log2 fold change is inactive: -0.041.

Regarding CNBP isoform 4 (UniProt P62633), the log2 fold change was inactive: -0.156.

As to CHMP5 (UniProt Q9NZZ3), the log2 fold change is inactive: -0.017.

For the target CMC1 (UniProt Q7Z7K0), the log2 fold change is inactive: -0.003.

CHCHD3 (UniProt Q9NX63): the log2 fold change was inactive: -0.035.

CMTM3 (UniProt Q96MX0): the log2 fold change is inactive: 0.104.

With CIAO2B (UniProt Q9Y3D0), the log2 fold change is inactive: -0.023.

For the target CKMT2 (UniProt P17540), the log2 fold change was inactive: -0.035.

Consider CHRAC1 (UniProt Q9NRG0), for which the log2 fold change was inactive: -0.039.

As to CISD2 (UniProt Q8N5K1), the log2 fold change was inactive: -0.02.

On to CIZ1 (UniProt Q9ULV3), for which the log2 fold change is inactive: -0.011.

With CHD1 (UniProt O14646), the log2 fold change is inactive: -0.063.

Regarding CHURC1 isoform 2 (UniProt Q8WUH1), the log2 fold change is inactive: -0.077.

For CIC (UniProt I3L2J0), the log2 fold change is inactive: -0.083.

As for CKAP5 (UniProt Q14008), the log2 fold change was inactive: -0.012.

Regarding CHD5 (UniProt Q8TDI0), the log2 fold change is inactive: 0.005.

Consider CHMP7 (UniProt Q8WUX9), for which the log2 fold change was inactive: 0.013.

For the target CHD7 (UniProt Q9P2D1), the log2 fold change is inactive: -0.063.

For the target CHD1L (UniProt Q86WJ1), the log2 fold change was inactive: -0.011.

Take CHD3 isoform 3 (UniProt Q12873): the log2 fold change was inactive: -0.021.

In the case of CHKB (UniProt Q9Y259), the log2 fold change was inactive: -0.032.

Consider CHUK (UniProt O15111), for which the log2 fold change is inactive: 0.071.
